Library screen at single concentrations

Results are given as percent effect.
The controls that fix the scale are not given in the record; negative values are as filed.
This is an unselected part of the compounds tested.

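Assay of Toxoplasma gondii numbers, read through their beta-galactosidase reporter with a colour substrate. Tested at 50 µM. Higher reads as fewer parasites (inferred from which compounds were picked for retests). Of about 18,000 compounds tested this way, about 170 (0.94%) reached 50% or more in at least one test.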

O=C(NCCCN1CCCCC1)c1ccccc1 read 5.426%.
CC(C)[C@H]1CN(C(=O)c2cnc3c(c2)CCC3)C[C@@H]1N read 11.61%.
CC(O)CNC(=O)c1ccc(C(F)(F)F)nc1 (configuration not stated) read 4.879%.
CC(C)S(=O)(=O)CCCn1nnc(-c2ccsc2)n1 read -0.6586%.
NC(=O)C1(NC(=O)C2CCc3ccccc32)CCCC1 (configuration not stated) read -7.521%.
CCSCCNC(=O)c1ccc2[nH]c(CO)nc2c1 read -3.136%.
O=C1CC(C2CCNCC2)CN1 (configuration not stated) read -40.18%.
COCCn1cc(CNC(=O)NCc2cccs2)cn1 read -11.58%.
CN(C)Cc1ccccc1CN(C)Cc1ncc[nH]1 read -3.032%.
NC(=O)c1cc(N)cs1 read -12.04%.
CCC1(CO)CCCN(Cc2[nH]cc(C)c(=O)c2C)C1 (configuration not stated) read 10.27%.
CCOC(CO)C1CC1 (configuration not stated) read -12.86%.
COc1ccc(Cl)cc1-n1nnc(C(N)=O)c1N read -0.4772%.
NCCCc1cn[nH]c1 read -1.399%.
C=C(C)CN1CCC(NC(=O)NC2CC2)CC1 read -15.76%.
Nc1cnn(CC(=O)NC2CCCC2)c1 read -7.201%.
COC(=O)CS(=O)(=O)Cc1ccc(CN)cc1 read -3.58%.
c1ccc(N2CCN(c3ncccn3)CC2)nc1 read -5.304%.
CNC(=O)CSc1nccn1Cc1ccco1 read -11.82%.
CCNS(=O)(=O)C1CCN(Cc2csnn2)C1 (configuration not stated) read -3.674%.
c1cc(CNCCn2cccn2)c2c(c1)OCCCO2 read -2.438%.
CNCc1nc(C)no1 read -2.057%.
CNC(=O)NC(=O)CN(C)CCCOc1ccccc1 read -8.226%.
Cc1ccoc1C(=O)N(C)Cc1nc(C(C)C)no1 read -1.111%.
CC(C)(C)OCCCN read -8.539%.
Cc1nc(N)ncc1C(=O)NC1CCC(=O)N(C)C1 (configuration not stated) read -8.79%.
NC(=O)CC1CCN(Cc2cccc(F)c2)CC1 read -2.721%.
Cc1nnnn1CCC(=O)N1CC[C@H]2CC[C@@H](C1)N2 read -1.696%.
CC(C)c1noc(OCCNS(C)(=O)=O)n1 read -4.671%.

The last 2 entries again:

| Compound | Percent Effect |
|---|---|
| `Cc1nnnn1CCC(=O)N1CC[C@H]2CC[C@@H](C1)N2` | -1.696 |
| `CC(C)c1noc(OCCNS(C)(=O)=O)n1` | -4.671 |

The values are deposited in ChEMBL (CHEMBL3988442, “University of Dundee, Small-Polar-MMV Screening Library” (2021)).